The supplement of paper PMC12067093, “Discovery and optimisation of a covalent ligand for TRIM25 and its application to targeted protein ubiquitination” (Chemical Science, 2025)
Some of the results follow.

The chains behind the UniProt entries cited, without tags or fusion partners. Where a name states a change or a piece, a line headed by the entry shows the natural chain unless it says otherwise.
UniProt Q86U38: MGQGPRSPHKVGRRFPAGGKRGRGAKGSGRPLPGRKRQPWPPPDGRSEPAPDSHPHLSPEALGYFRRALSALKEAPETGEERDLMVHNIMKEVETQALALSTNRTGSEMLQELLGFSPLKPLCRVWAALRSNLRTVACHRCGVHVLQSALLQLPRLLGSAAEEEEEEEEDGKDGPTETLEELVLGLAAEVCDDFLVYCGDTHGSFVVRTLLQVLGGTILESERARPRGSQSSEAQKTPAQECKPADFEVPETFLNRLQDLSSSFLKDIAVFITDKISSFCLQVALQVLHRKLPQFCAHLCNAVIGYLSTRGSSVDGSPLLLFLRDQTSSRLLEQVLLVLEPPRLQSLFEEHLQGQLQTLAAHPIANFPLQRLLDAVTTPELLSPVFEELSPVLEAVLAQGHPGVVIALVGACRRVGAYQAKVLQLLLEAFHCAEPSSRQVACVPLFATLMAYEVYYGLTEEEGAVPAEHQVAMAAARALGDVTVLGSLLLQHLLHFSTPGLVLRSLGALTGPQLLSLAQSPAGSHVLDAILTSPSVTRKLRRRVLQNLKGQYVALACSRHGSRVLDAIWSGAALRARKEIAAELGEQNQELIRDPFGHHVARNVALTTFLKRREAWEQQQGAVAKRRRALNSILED
UniProt Q96MF7: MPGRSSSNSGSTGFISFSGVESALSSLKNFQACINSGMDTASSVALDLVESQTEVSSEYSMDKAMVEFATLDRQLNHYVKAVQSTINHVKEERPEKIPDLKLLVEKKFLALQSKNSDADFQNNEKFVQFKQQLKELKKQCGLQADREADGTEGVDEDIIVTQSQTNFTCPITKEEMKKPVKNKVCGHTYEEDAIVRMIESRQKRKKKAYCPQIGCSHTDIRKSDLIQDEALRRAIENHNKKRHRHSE
UniProt Q5SY16: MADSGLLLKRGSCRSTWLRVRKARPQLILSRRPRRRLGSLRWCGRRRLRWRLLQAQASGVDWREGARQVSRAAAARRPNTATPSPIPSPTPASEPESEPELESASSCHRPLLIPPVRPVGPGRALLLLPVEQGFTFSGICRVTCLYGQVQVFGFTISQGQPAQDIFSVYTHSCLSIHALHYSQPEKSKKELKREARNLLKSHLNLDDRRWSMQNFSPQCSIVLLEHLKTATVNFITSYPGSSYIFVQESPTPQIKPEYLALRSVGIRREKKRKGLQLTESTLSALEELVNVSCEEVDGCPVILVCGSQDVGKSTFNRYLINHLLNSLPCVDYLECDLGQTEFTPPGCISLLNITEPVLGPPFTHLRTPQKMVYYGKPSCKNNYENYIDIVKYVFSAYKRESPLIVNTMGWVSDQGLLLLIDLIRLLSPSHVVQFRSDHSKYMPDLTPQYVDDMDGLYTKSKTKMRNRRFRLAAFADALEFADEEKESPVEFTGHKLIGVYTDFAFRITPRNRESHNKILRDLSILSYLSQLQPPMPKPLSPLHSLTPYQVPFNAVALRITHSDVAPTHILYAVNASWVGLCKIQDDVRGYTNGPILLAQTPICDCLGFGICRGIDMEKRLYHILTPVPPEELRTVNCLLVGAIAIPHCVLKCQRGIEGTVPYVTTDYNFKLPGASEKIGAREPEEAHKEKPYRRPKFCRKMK
UniProt P78316: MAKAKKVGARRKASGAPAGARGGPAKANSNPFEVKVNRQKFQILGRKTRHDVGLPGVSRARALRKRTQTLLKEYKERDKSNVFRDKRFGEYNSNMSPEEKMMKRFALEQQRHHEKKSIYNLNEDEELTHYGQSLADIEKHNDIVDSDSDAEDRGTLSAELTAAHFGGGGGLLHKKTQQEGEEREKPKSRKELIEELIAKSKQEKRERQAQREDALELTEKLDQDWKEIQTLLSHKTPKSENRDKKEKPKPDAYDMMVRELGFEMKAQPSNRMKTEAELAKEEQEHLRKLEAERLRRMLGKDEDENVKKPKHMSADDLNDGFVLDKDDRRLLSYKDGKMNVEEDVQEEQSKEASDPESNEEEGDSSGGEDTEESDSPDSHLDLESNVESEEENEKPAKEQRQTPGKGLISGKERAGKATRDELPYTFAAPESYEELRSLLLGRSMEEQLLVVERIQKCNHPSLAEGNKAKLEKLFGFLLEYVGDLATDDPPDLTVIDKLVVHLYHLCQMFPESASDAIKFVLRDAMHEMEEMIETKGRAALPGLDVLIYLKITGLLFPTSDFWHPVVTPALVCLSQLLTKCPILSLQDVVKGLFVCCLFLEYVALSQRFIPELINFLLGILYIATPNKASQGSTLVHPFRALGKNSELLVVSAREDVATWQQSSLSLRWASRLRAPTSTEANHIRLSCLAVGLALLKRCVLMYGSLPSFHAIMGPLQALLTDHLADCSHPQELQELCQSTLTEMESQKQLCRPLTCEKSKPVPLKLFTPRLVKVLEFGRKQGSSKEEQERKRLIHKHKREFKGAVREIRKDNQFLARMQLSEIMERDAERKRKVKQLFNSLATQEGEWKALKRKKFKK
UniProt P04150: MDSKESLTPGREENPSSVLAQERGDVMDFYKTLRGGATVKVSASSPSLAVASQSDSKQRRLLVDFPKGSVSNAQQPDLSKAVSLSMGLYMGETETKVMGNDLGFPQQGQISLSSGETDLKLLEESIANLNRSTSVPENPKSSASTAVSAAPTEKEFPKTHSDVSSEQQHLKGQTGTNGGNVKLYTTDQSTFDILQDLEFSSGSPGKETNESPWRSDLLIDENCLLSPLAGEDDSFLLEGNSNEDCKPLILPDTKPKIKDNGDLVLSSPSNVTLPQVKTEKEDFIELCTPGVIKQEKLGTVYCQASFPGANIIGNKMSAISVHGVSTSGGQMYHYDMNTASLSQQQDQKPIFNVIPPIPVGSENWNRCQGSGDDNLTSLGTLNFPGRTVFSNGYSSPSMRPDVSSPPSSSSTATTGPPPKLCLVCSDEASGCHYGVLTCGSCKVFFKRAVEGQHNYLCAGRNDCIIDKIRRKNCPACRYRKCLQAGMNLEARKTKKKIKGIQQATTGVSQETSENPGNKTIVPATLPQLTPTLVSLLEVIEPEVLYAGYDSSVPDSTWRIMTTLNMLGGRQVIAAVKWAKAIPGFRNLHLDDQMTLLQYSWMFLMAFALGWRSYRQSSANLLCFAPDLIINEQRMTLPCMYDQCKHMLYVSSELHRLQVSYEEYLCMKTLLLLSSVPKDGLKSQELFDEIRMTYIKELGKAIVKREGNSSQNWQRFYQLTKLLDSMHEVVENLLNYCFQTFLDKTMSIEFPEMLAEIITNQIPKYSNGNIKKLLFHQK
UniProt Q8NDH3: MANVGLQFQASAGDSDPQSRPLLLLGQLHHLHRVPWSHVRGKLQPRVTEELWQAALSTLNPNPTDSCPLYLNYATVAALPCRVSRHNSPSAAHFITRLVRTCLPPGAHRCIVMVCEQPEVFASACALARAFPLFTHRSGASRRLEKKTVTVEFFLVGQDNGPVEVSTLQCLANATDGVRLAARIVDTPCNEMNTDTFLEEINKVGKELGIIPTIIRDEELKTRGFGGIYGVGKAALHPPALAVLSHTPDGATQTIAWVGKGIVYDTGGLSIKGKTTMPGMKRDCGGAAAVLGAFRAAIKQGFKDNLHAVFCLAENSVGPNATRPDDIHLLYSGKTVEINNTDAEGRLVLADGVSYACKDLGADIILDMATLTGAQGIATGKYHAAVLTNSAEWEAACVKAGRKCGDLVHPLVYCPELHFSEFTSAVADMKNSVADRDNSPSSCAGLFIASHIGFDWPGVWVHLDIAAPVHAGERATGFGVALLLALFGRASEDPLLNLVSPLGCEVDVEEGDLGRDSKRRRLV
UniProt Q9UK39: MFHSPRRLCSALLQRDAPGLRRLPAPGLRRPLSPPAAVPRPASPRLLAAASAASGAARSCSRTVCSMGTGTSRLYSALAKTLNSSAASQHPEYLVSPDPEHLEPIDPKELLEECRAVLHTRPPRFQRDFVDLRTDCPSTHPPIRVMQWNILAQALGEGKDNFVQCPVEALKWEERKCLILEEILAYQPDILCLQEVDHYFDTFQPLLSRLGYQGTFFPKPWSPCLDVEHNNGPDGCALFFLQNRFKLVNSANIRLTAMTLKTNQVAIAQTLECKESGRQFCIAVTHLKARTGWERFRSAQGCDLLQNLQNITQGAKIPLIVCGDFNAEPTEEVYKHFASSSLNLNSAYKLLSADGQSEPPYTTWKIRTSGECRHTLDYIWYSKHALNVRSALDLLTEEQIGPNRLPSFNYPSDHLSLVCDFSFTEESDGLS
UniProt O96028: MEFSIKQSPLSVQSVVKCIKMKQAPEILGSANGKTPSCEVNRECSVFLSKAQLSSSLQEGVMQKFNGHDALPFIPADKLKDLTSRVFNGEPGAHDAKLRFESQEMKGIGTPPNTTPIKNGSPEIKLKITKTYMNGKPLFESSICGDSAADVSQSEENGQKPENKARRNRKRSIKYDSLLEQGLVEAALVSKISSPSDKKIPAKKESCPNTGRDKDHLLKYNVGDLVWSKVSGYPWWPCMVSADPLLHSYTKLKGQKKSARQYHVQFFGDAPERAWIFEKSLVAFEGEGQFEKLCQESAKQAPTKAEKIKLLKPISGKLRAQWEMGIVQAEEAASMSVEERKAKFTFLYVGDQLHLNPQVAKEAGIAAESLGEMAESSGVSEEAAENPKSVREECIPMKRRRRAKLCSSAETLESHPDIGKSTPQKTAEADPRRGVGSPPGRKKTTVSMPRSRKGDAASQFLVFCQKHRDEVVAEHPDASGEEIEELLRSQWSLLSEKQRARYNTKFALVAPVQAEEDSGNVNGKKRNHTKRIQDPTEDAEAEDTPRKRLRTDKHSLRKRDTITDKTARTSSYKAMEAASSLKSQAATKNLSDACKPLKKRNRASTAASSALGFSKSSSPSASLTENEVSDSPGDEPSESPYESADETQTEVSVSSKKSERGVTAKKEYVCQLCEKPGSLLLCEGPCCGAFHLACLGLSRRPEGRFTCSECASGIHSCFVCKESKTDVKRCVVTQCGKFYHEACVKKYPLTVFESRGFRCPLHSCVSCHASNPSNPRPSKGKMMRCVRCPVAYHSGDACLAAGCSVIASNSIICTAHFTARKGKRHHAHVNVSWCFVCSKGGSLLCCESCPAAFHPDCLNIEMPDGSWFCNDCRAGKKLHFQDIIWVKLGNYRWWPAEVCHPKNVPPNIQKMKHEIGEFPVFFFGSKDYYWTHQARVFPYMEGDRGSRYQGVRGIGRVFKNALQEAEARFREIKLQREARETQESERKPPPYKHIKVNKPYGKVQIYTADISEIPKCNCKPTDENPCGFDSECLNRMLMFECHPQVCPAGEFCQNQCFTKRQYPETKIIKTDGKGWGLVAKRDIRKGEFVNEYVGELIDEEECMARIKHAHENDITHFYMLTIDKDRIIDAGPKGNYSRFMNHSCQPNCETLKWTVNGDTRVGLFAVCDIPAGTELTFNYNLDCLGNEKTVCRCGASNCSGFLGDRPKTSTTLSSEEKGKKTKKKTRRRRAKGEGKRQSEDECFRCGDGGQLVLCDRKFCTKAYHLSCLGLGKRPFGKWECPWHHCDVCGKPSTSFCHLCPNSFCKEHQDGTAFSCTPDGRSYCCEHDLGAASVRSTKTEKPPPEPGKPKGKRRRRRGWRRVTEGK
UniProt Q86WQ0: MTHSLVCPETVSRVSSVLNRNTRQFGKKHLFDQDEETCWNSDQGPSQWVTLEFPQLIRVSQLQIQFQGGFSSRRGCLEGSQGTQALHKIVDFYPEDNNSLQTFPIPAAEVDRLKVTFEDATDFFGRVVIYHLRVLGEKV
UniProt Q08J23, whole entry, looked up: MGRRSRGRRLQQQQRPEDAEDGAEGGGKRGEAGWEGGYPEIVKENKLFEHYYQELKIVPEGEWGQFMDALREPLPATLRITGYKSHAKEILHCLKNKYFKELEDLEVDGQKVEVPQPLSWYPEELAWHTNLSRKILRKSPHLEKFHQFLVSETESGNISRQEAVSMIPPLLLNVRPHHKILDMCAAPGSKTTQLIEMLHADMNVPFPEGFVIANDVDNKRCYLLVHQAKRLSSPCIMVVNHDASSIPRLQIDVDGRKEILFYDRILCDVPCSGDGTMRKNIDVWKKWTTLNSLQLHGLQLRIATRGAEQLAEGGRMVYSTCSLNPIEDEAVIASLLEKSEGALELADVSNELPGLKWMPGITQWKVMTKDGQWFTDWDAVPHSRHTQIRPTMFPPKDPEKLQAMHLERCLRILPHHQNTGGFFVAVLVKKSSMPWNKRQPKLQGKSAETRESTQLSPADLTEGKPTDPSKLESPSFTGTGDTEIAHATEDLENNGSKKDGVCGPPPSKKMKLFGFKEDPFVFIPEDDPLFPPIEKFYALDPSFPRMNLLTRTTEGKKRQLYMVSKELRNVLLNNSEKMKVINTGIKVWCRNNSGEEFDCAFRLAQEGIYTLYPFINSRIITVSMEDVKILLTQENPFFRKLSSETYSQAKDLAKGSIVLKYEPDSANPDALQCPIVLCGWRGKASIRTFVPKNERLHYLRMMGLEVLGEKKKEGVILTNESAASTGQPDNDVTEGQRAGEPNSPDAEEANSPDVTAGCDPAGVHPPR

compound: Cc1cc(ccc1-c1ccccc1)C(=O)N1CCCN(CC1)C(=O)CCl [compound 10]; experiment: probe-labelled cysteine peptide fold change vs DMSO (competition) (log2 fold change); higher = less target engagement (more negative = stronger competition); details: 50 µM; THP-1; incubation time: 4 h
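Also: competitive profiling in live THP-1 cells: cysteine peptides tagged with an iodoacetamide desthiobiotin (IA-DTB) probe, intensity after compound treatment relative to DMSO-treated cells.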

Target | probe-labelled cysteine peptide fold change
NMT2_O60551_485_CPGTDSEK (UniProt O60551) | -0.0787
NOL11_Q9H8H0_557_CNNCDQELNK (UniProt Q9H8H0) | -0.199
NOP9_Q86U38_141_CGVHVLQSALLQLPR (UniProt Q86U38) | 0.629
NLRP2_Q9NX02_692_SQDDQHMLPFWTDLCSIFGSNK (UniProt Q9NX02) | -0.373
NPEPPS_P55786_66_LPADVSPINYSLCLKPDLLDFTFEGK (UniProt P55786) | 0.356
NSMCE2_Q96MF7_215_AYCPQIGCSHTDIR (UniProt Q96MF7) | 0.181
NLN_Q9BYT8_458_YNHAACFGLQPGCLLPDGSR (UniProt Q9BYT8) | -0.117
NOL4L_Q96MY1_148_TEVSGCPEDLTVGR (UniProt Q96MY1) | -0.164
NOP9_Q86U38_242_TPAQECKPADFEVPETFLNR (UniProt Q86U38) | 0.125
NOL9_Q5SY16_637_TVNCLLVGAIAIPHCVLK (UniProt Q5SY16) | -0.381
NOP14_P78316_457_CNHPSLAEGNK (UniProt P78316) | 0.0346
NR3C1_P04150_463_NDCIIDK (UniProt P04150) | -0.53
NPEPL1_Q8NDH3_404+414_CGDLVHPLVYCPELHFSEFTSAVADMK (UniProt Q8NDH3) | 0.076
NOL8_Q76FK4_1020_EEGTPWNEDCGK (UniProt Q76FK4) | -0.0417
NPEPL1_Q8NDH3_284_DCGGAAAVLGAFR (UniProt Q8NDH3) | -0.107
NOCT_Q9UK39_165_DNFVQCPVEALKWEER (UniProt Q9UK39) | -0.412
NSD2_O96028_1198_CGASNCSGFLGDRPK (UniProt O96028) | -0.546
NMD3_Q96D46_250_STFSVEIVPICK (UniProt Q96D46) | -0.0615
NR2C2AP_Q86WQ0_7_THSLVCPETVSR (UniProt Q86WQ0) | -0.0397

For convenience, some entries already given:
Target | probe-labelled cysteine peptide fold change
NOP14_P78316_457_CNHPSLAEGNK (UniProt P78316) | 0.0346
NR3C1_P04150_463_NDCIIDK (UniProt P04150) | -0.53
NPEPL1_Q8NDH3_404+414_CGDLVHPLVYCPELHFSEFTSAVADMK (UniProt Q8NDH3) | 0.076
NOL8_Q76FK4_1020_EEGTPWNEDCGK (UniProt Q76FK4) | -0.0417
NPEPL1_Q8NDH3_284_DCGGAAAVLGAFR (UniProt Q8NDH3) | -0.107
NOCT_Q9UK39_165_DNFVQCPVEALKWEER (UniProt Q9UK39) | -0.412
NSD2_O96028_1198_CGASNCSGFLGDRPK (UniProt O96028) | -0.546
NMD3_Q96D46_250_STFSVEIVPICK (UniProt Q96D46) | -0.0615
NR2C2AP_Q86WQ0_7_THSLVCPETVSR (UniProt Q86WQ0) | -0.0397

Continued.

Target | probe-labelled cysteine peptide fold change
NRDC_O43847_1027_LKECEDTHLGEEVDR (UniProt O43847) | -0.281
NSUN2_Q08J23_93_EILHCLK (UniProt Q08J23) | -0.361
NR2F6_P10588_316_AIALFTPDACGLSDPAHVESLQEK (UniProt P10588) | -1.1
NSMCE2_Q96MF7_210+215_AYCPQIGCSHTDIR (UniProt Q96MF7) | 0.0116
NOC4L_Q9BVI4_100_HRYHSCCNR (UniProt Q9BVI4) | -0.743
NOP56_O00567_52_LVAFCPFASSQVALENANAVSEGVVHEDLR (UniProt O00567) | 0.61
NONO_Q15233_208_CSEGSFLLTTFPRPVTVEPMDQLDDEEGLPEK (UniProt Q15233) | -0.158
NOMO2_Q5JPE7_411_IAPNTPQLADIVATGFSVCGR (UniProt Q5JPE7) | -0.138
NSDHL_Q15738_40_CTVIGGSGFLGQHMVEQLLAR (UniProt Q15738) | 0.178
NSUN2_Q08J23_599_NNSGEEFDCAFR (UniProt Q08J23) | -0.394
NLRX1_Q86UT6_713_CTVVAAVLGSGR (UniProt Q86UT6) | 0.00705
NOL9_Q5SY16_581_ITHSDVAPTHILYAVNASWVGLCK (UniProt Q5SY16) | 0.282
NOTCH1_P46531_1293_VNDFHCECR (UniProt P46531) | -0.153
NPAT_Q14207_1172_ENELCSDVER (UniProt Q14207) | -0.109
NTMT1_Q9BV86_195_IICSAGLSLLAEERQENLPDEIYHVYSFALR (UniProt Q9BV86) | -0.928
NSUN4_Q96CB9_258_VLVDVPCTTDR (UniProt Q96CB9) | -0.136
NOL10_Q9BSC4_55_IELIQDFEMPTVCTTIK (UniProt Q9BSC4) | 0.11
NOB1_Q9ULX3_285+288_VFCSHCGNK (UniProt Q9ULX3) | -0.447
NSD2_O96028_1323+1324_SYCCEHDLGAASVR (UniProt O96028) | -0.49
